Experimental data from publication PMC6345817.
Results are given in words; binding and its absence hold for the method and conditions named. For some assays here: Binding can be weak; no strength is given.

Amino acid sequences for entries named in this document (tags omitted). A change or cut given only in a name is not applied to a line headed by its entry.
UniProt Q8WY21: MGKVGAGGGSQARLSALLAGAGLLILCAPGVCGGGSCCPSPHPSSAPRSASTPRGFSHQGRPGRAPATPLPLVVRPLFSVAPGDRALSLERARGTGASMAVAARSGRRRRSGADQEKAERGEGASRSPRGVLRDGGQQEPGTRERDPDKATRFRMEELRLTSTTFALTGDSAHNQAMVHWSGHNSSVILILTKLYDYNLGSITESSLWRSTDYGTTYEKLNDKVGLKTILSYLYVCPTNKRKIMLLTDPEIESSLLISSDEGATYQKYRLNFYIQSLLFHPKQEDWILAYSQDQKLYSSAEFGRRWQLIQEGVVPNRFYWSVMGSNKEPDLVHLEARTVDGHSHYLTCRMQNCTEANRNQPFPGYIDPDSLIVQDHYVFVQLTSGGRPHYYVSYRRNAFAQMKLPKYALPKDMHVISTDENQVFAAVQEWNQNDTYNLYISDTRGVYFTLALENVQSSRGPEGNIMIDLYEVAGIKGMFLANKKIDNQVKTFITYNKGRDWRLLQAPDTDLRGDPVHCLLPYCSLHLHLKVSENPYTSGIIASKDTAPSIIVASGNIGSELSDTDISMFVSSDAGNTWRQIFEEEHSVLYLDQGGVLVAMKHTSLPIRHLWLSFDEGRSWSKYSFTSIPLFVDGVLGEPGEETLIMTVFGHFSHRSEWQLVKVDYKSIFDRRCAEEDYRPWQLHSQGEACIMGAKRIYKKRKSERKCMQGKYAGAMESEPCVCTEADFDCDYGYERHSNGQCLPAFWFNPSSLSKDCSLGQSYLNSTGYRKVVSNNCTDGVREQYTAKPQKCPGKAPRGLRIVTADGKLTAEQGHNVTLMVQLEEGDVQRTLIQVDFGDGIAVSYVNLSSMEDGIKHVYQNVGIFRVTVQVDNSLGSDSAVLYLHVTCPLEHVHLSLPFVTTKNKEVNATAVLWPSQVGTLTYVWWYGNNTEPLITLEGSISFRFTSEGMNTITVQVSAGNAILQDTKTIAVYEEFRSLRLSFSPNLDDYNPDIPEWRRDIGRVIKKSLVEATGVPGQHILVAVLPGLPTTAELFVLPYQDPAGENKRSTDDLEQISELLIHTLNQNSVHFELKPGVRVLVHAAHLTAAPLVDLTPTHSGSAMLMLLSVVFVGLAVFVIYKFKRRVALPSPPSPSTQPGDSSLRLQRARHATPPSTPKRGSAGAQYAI

Legend:
[1] = target: SorLA cytoplasmic domain (K2160–A2214) in fusion with LexA (human (from the printed RefSeq entry)); assay: two-hybrid; commercial library screen by Hybrigenics: SorLA cd as bait, adult human brain random-primed cDNA library in the Y187 yeast strain, by mating
[2] = target: SorLA cytoplasmic domain (K2160–A2214) in fusion with LexA (human (from the printed RefSeq entry)); assay: two-hybrid; pairwise test: pB27 (LexA) bait and pP6 prey plasmids; cells spotted on plates without Leu/Trp/His; 3-AT against bait auto-activation (10 or 15 mM for SorLA-cd, 20 mM for MPR46-cd); done three times
[3] = target: SorLA-cd Δ20–54 (pB27 bait) (human (from the printed RefSeq entry)); assay: as above
[4] = target: SORCS3 cytoplasmic domain K1145-V1122 (pB27 bait) (human (from the printed RefSeq entry)); assay: as above
[5] = target: SorLA-cd Δ29–54 (pB27 bait) (human (from the printed RefSeq entry)); assay: as above
[6] = target: SORCS1B cytoplasmic domain K1121-I1168 (pB27 bait) (human (from the printed RefSeq entry)) (UniProt Q8WY21); assay: as above
[7] = target: SorLA-cd Δ51–54 (pB27 bait) (human (from the printed RefSeq entry)); assay: as above

B1: HSPA12A fragment T513-Y675 (pP6 prey clone identified by Hybrigenics) (domain or fragment, UniProt O43301 513-675)
chain: TILKGAVLFGLDPAVIKVRRSPLTYGVGVLNRYVEGKHPPEKLLVKDGTRWCTDVFDKFISADQSVALGELVKRSYTPAKPSQLVIVINIYSSEHDNVSFITDPGVKKCGTLRLDLTGTSGTAVPARREIQTLMQFGDTEIKATAIDIATSKSVKVGIDFLNY
- binding [1]: binds
- binding [2]: binds
- binding [3]: no binding
- binding [4]: no binding
- binding [5]: no binding
- binding [6]: no binding
- binding [7]: binds

B2: GGA-1 VHS domain clones from the adult human brain cDNA library (domain or fragment, UniProt Q9UJY5 17-147)
chain: ATNPLNKELDWASINGFCEQLNEDFEGPPLATRLLAHKIQSPQEWEAIQALTVLETCMKSCGKRFHDEVGKFRFLNELIKVVSPKYLGSRTSEKVKNKILELLYSWTVGLPEEVKIAEAYQMLKKQGIVKS
- binding [1]: binds
